From paper PMC5996148 come the findings set out here.

Protein sequences, listed by entry. Tags and fused reporters are not part of them. Lines headed by an entry give the natural chain unless they say otherwise; changes in a name come on top.
UniProt Q9BQ15: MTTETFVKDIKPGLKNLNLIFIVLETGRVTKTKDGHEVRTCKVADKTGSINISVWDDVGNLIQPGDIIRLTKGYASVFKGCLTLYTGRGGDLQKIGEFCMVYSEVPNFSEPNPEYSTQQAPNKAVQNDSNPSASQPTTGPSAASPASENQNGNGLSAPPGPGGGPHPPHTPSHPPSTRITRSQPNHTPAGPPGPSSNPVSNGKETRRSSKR

Where “and” joins values, the source holds several entries; their conditions need not be identical. Equal values may be shown once. The list shows a part of the results. For some assays here: Construct or isoform of the protein are uncertain.

Among the test systems are ODAM (human); OGN (human); OGT (human); OPA3 (human); OR4D6 (human); ORC4L (human); ORM1 (human); ORM2 (human); ORMDL2 (human); OSBPL1A (human); OSTbeta (human); OTUB2 (human); Optineurin (human); Osteocalcin (human); P2RX1 (human).
What all share (assay): protein microarray (ProtoArray v5.0), streptavidin-Alexa Fluor 647
Holding throughout (details): 3'-biotin; 20 mM Tris (pH 7.5), 5 mM MgCl2, 100 mM KCl, 0.1% Tween-20, A/T-rich and random oligonucleotide blockers; temperature not stated; high values mean tight binding

Assay [1] has as its system Nuclear protein Hcc-1 (human).
Assay [2] has as its system Nuclear receptor-binding protein (human).
The next assay deals with OBFC2B (UniProt Q9BQ15).
Assay [3] has as its system Olfactory receptor 3A1 (human).
The subject of assay [4] is Ornithine decarboxylase (human).

On to “GGTGACAGGGGTATGGGGAGGGG [G4-2 biotinylated (Ct1)]”, for which the binding signal was 4.43 z-score and 6.78 z-score in assay [1]; -0.39 z-score in assay [2]; 3.15 z-score with OBFC2B; -0.389 z-score in the assay on ODAM (human); -0.383 z-score in the assay with OGN (human); -0.405 z-score in the assay on OGT (human). The binding signal was -0.375 z-score with OPA3 (human); -0.356 z-score with OR4D6 (human); -0.36 z-score in the assay with ORC4L (human); -0.39 z-score in the assay with ORM1 (human); -0.38 z-score in the assay on ORM2 (human); -0.365 z-score in the assay with ORMDL2 (human). Besides, the binding signal in the assay with OSBPL1A (human) is -0.393 z-score; in the assay on OSTbeta (human), -0.385 z-score; in the assay on OTUB2 (human), -0.38 z-score; in [3], -0.39 z-score; in the assay with Optineurin (human), -0.396 z-score; in assay [4] it was -0.388 z-score. Also, the binding signal is -0.366 z-score with Osteocalcin (human) and -0.362 z-score with P2RX1 (human).
